Test results published in PubChem BioAssay AID2685 (National Center for Advancing Translational Sciences (NCATS), 2010).
Some of the results follow. Further columns of the screen follow, without active or inactive calls. The list favours compounds with an active or inconclusive main result. The note in brackets gives the kind of curve behind each potency; many fits are weak.

Assay: qHTS Assay for Lipid Storage Modulators in Drosophila S3 Cells;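 on cell number change: cells counted by Cell Tracker Red CMTPX staining in the red channel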
Details: BODIPY lipid droplet fluorescence, 18-24 h; for cell number change: measured here: cell count max response, cells fed with added oleic acid
Outline: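 Drosophila S3 cells loaded with oleic acid (400 uM, as added) and compounds at several concentrations; lipid droplets imaged by 488-nm laser-scanning cytometry, 500–530 nm intensity and object ratio to cell channel. Percent activity normalized to 20 uM Triacsin C.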

[1] = measured here: cell number channel AC50, cells fed with added oleic acid
[2] = measured here: lipid fluorescence (Fed channel) AC50, cells fed with added oleic acid

For O=C(/C=C/c1cccc([N+](=O)[O-])c1)N1CCN(Cc2ccc3c(c2)OCO3)CC1, the cell number change was 33.9%, the AC50 [1] was 1.64 µM [rising, full curve] and the AC50 [2] was 18.4 µM [rising, partial curve].
With CCN1C(=O)[C@H]2[C@@H](c3ccc(C)cc3)N3C(=O)N(c4ccc(OC)cc4)C(=O)[C@@]3(C)[C@H]2C1=O the cell number change was -5.83%.
In the case of COc1cc(CNc2ccc3[nH]c(=O)[nH]c3c2)cc(Br)c1OCc1ccccc1F, the cell number change is reported as -37.7%, the AC50 [1] is reported as 3.66 µM [falling, full curve, poor fit] and the AC50 [2] is reported as 11.6 µM [falling, partial curve].
For O=C1N=C(N2CCOCC2)S/C1=C/c1ccc(-c2ccccc2Cl)o1, the AC50 [1] was 1.46 µM [rising, partial curve] and the AC50 [2] was 3.66 µM [rising, single point].
With Cc1cc(NC(=O)C(C)SCC(=O)OCc2ccc(Cl)cc2Cl)no1 (stereo unspecified) the cell number change was -9.01% and the AC50 [2] was 7.31 µM [rising, partial curve, poor fit].
With COc1cc2c(cc1NC(=O)C(C)OC(=O)C1CC(=O)N(Cc3ccco3)C1)oc1ccccc12 (stereo unspecified) the cell number change was -0.4% and the AC50 [2] was 8.2 µM [falling, partial curve].
For Cc1ccc(C)c(NC(=O)c2nc(-c3ccccc3)n(-c3ccccc3)n2)c1, the cell number change was -9.57%, the AC50 [1] was 0.146 µM [rising, full curve] and the AC50 [2] was 0.259 µM [rising, full curve].
In the case of CC1CCCCN1C(=O)c1ccccc1NC(=O)c1ccco1 (stereo unspecified), the cell number change is reported as 11.4% and the AC50 [2] is reported as 23.1 µM [falling, partial curve].
For COc1ccccc1C(=O)COC(=O)Cn1nc(C)c([N+](=O)[O-])c1C, the cell number change was -13.2% and the AC50 [1] was 1.84 µM [falling, partial curve].
Work on Oc1ccc(Cl)cc1CNc1nccs1 yielded a cell number change of 14.4%.
In the case of CCNc1nc(-c2ccc(Cl)cc2)cs1, the cell number change is reported as -32.6%, the AC50 [1] is reported as 29.1 µM [falling, single point] and the AC50 [2] is reported as 23.1 µM [falling, single point].
In the case of CCN(CC(=O)Nc1ccc(NC(C)=O)cc1)C(=O)c1ccc(N2CCC(C)CC2)c([N+](=O)[O-])c1, the cell number change is reported as 5.7%, the AC50 [1] is reported as 0.517 µM [falling, full curve] and the AC50 [2] is reported as 0.517 µM [falling, full curve].
For COCCn1c(COc2ccccc2)nnc1SCC(N)=O, the cell number change was -0.862% and the AC50 [2] was 20.6 µM [falling, partial curve].
With CC1=C(C(=O)NCc2ccc(Cl)cc2)C2(CCC(C)CC2)OC1=O (stereo unspecified) the AC50 [1] was 0.461 µM [rising, partial curve, poor fit] and the AC50 [2] was 0.517 µM [rising, single point].
In the case of COc1ccc(/C=C/C(=O)c2ccncc2)c2ccccc12, the cell number change is reported as -15.5% and the AC50 [2] is reported as 29.1 µM [falling, single point].
In the case of Cc1cc(NC(=O)CSc2nc3ccccc3c(=O)n2C(C)c2ccccc2)no1 (stereo unspecified), the AC50 [1] is reported as 2.91 µM [rising, single point] and the AC50 [2] is reported as 3.26 µM [rising, partial curve].
In the case of COC(=O)c1ccc(CNC(=O)CCNC(=O)c2ccco2)cc1, the cell number change is reported as -14%, the AC50 [1] is reported as 0.164 µM [falling, full curve, poor fit] and the AC50 [2] is reported as 1.46 µM [falling, partial curve, poor fit].
Work on O=C(OC1CCOC1=O)c1cc(-c2ccc(Cl)cc2)nc2ccccc12 (stereo unspecified) yielded a cell number change of -9.66%.
With Cc1ccc(-c2nnc(SCC#CCOC(=O)c3cccs3)o2)cc1 the cell number change was 46.5% and the AC50 [1] was 8.2 µM [rising, partial curve, poor fit].
In the case of COc1cccc([C@@H]2Oc3ccc(OC)cc3C(=O)[C@H]2O)c1, the cell number change is reported as -30.2%, the AC50 [1] is reported as 0.206 µM [falling, full curve, poor fit] and the AC50 [2] is reported as 0.00517 µM [falling, full curve, poor fit].
For Cc1ccc(S(=O)(=O)NCC(=O)OCc2cc(=O)oc3cc(C)ccc23)cc1, the cell number change was -28% and the AC50 [2] was 23.1 µM [falling, single point].
With CC(=O)Nc1nc(CC(=O)c2ccccc2)cs1 the AC50 [1] was 2.91 µM [rising, partial curve] and the AC50 [2] was 2.06 µM [rising, partial curve].
With O=C(COC(=O)/C=C/c1ccccc1)Nc1cccc(Oc2ccccc2)c1 the cell number change was -18.8% and the AC50 [2] was 0.366 µM [falling, full curve, poor fit].
For O=C(Nc1ccc(Cl)cc1Cl)NC1CCCC1, the cell number change was -14.5%.
For CC(=O)N1CC2(C)CN(C(C)=O)CC(C)(C1)C2=O, the AC50 [1] was 6.51 µM [falling, single point] and the AC50 [2] was 7.31 µM [falling, partial curve].
In the case of CCCc1cc(=O)oc2cc(C)cc(OC(C)C(=O)NCc3ccccn3)c12 (stereo unspecified), the cell number change is reported as 18.2% and the AC50 [2] is reported as 16.4 µM [falling, single point].
With Cc1ccc2c(c1)C1CN(C)CCC1N2C(=S)Nc1ccc(OC(F)F)cc1 (stereo unspecified) the cell number change was -27.7% and the AC50 [2] was 2.06 µM [rising, partial curve].
In the case of CC(C)CCNC(=O)CSc1nnc(-c2ccc(S(=O)(=O)N3CCCC3)cc2)n1C, the AC50 [1] is reported as 0.651 µM [rising, single point].
With O=C(CSc1nc(-c2ccc(F)cc2)cc(C(F)(F)F)n1)NCc1cccs1 the cell number change was 47.4%, the AC50 [1] was 7.31 µM [rising, partial curve] and the AC50 [2] was 1.64 µM [rising, partial curve].
For CN(C)S(=O)(=O)c1cc(C(=O)O)c(NC2CCCCC2)cc1Cl, the cell number change was 5.55% and the AC50 [2] was 14.6 µM [falling, partial curve].
In the case of CC(C(=O)O)N1C(=O)C2C3CC(C2C1=O)C1C(c2ccccc2)c2sc(=O)[nH]c2SC31 (stereo unspecified), the cell number change is reported as -2.67% and the AC50 [1] is reported as 6.51 µM [falling, single point].
Work on CCOC(=O)C1(C)NC(c2cccs2)C2C(=O)N(c3ccc(C)cc3)C(=O)C21 (stereo unspecified) yielded a cell number change of 2.65%.
For NC(=O)c1ccccc1NC(=O)COc1ccc(Cl)cc1, the cell number change was 24.6% and the AC50 [2] was 0.92 µM [rising, partial curve, poor fit].
With COCc1cc(C)nc(N/N=C/c2ccc(-c3ccc(Cl)cc3[N+](=O)[O-])o2)c1C#N the AC50 [2] was 20.6 µM [rising, single point].
In the case of NNC(=O)c1sc(-c2ccccc2)cc1N, the cell number change is reported as 8.2% and the AC50 [2] is reported as 29.1 µM [rising, single point].
